# Primary screen of a compound library

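Whole-parasite assay of Trypanosoma brucei over 72 hours; the read-out is not stated. Compounds at 30 µM. Direction is inferred from retests: higher values go with stronger inhibition. Values scatter widely below zero; nearly all retest evidence comes from the higher of the two concentrations used. Of about 64,000 compounds tested this way, about 940 (1.5%) reached 50% or more in at least one test.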

Values are the deposited “Percent Effect”, in %. How 0% and 100% were set is not recorded. Most values in the screen are low, and negative values occur. Compounds were drawn at random from those tested, without regard to their results.

* CCOc1ncccc1NC(=O)N1CCC(n2cncn2)CC1 | -4.807%
* O=C1C(Nc2nccn3cnnc23)CCCN1c1ccccc1Cl (centres undefined) | -47.04%
* CC(C)Nc1ncnc2c1CCN(C(=O)NCc1cccnc1)CC2.O=C(O)C(F)(F)F | -100.9%
* CN1CCNC(Cc2ccc(-c3cccs3)cc2)C1=O (centres undefined) | 2.21%
* CCN(CC)S(=O)(=O)c1csc(C(=O)N2CCC(C(N)=O)CC2)c1 | -9.252%
* O=C(NCC1(N2CCOCC2)CCSC1)Nc1ccccn1 (centres undefined) | -37.04%
* Cc1cnn(CCCN2C(=O)CCc3ccccc32)c1 | -12.59%
* Cc1noc(C)c1CC(=O)N1CCCN(C)c2ccc(Cl)cc21 | -31.15%
* O=C(Nc1nnn[nH]1)c1cc(-c2ccc(Br)s2)n[nH]1 | -7.868%
* N#Cc1cccnc1N1CCC(c2nc(C(F)(F)F)c[nH]2)CC1 | -105.3%
* Cn1cnn(CC(=O)NCc2ccccc2F)c1=O | -38.81%
* CCNC(=O)CN(CC)C(=O)Cc1csc(C(C)C)n1 | -32.96%
* COc1cccc2c1OCC(CNC(=O)Cc1csc(C(C)=O)c1)C2 (centres undefined) | -313.6%
* NC(=O)COc1ccc(CNCc2ccc(Cl)c(F)c2)cc1 | -4.601%
* CN(C)Cc1ccnc(C2CCCN2Cc2ccc(F)cn2)n1 (centres undefined) | -4.007%
* CCN(CC1CCOC1)S(=O)(=O)Cc1ccccc1Cl (centres undefined) | -42%
* Cc1nn(C)c(C)c1CCC(=O)N1CC(c2cccnc2)C1 | -14.16%
* O=C(O)C(F)(F)F.O=C(c1ccccc1F)N1CCC2(CC1)CC(N1CCCC1)CO2 (centres undefined) | -84.64%
* O=C(CCCNC(=O)NCC1CCCO1)Nc1ccc(Cl)cc1 (centres undefined) | 0.5697%
* O=c1oc(-c2ccc(F)cc2)nn1CCS(=O)(=O)c1ccccc1 | -24.88%
* O=C(O)C(F)(F)F.[H][C@]12CCN(Cc3ccccn3)C[C@@]1([H])OCCN(C(=O)c1ccsc1)C2 | -178.4%
* CNC(=O)N1CCCCC1c1nnc2n1CCCC2 (centres undefined) | -2.044%
* CC(Cn1ccnc1)NC(=O)N1CCN(Cc2cccnc2)CC1 (centres undefined) | 7.324%
* OCC1(Cc2ccc(Cl)cc2)CCN(Cc2ccccc2O)CC1 | -146.1%
* O=C(NS(=O)(=O)c1ccccc1Cl)c1cccc2c1OCCO2 | -68.45%
* CCc1cc(NCCCOC2CCCC2)ncn1 | -48.75%
* O=C1COc2ccc(S(=O)(=O)NCC3CCCO3)c3c2N1CCC3 (centres undefined) | -24.45%
* CS(=O)(=O)c1nnc(NC(=O)CCc2cccc(Cl)c2)[nH]1 | -18.06%
* O=C(Nc1ccccc1F)c1nn(C2CCS(=O)(=O)C2)c2c1CCCC2 (centres undefined) | -4.29%
* Cc1cc(C(F)F)nn1CC(=O)NCc1nccn1C | -16.65%
* COc1ccc(CC2CN(C(=O)c3ocnc3C)CCO2)cc1 (centres undefined) | 39.54%
* CC(O)CN1CCC(CNCc2ccccc2OC(F)(F)F)CC1 (centres undefined) | -22.34%
* CC(C)Cc1noc(CN(C)c2cc(C(C)C)nc3ccnn23)n1 | 12.6%
* Cc1cc(C)n(C2CCCN(C(=O)c3cccc(F)c3F)C2)n1 (centres undefined) | -91.58%
* CNC(=O)C1CC2(CCN(C(=O)c3csnn3)CC2)c2ccccc21 (centres undefined) | -37.63%
* CCCC(=O)N1CCC(Nc2nc(O)cc(-c3ccsc3)n2)CC1 | 31.85%
* CC(C)c1nc2c(n1C)CCN(CC(=O)NCc1ccccn1)C2 | -66.24%

Repeated from the top, 4 entries:

| Compound | Percent Effect |
|---|---|
| `CCOc1ncccc1NC(=O)N1CCC(n2cncn2)CC1` | -4.807% |
| `O=C1C(Nc2nccn3cnnc23)CCCN1c1ccccc1Cl` (centres undefined) | -47.04% |
| `CC(C)Nc1ncnc2c1CCN(C(=O)NCc1cccnc1)CC2.O=C(O)C(F)(F)F` | -100.9% |
| `CN1CCNC(Cc2ccc(-c3cccs3)cc2)C1=O` (centres undefined) | 2.21% |

Measurements from “University of Dundee, Small-Polar-MMV Screening Library” (2021), ChEMBL document CHEMBL3988442.